Laboratory results taken from publication PMC4802788.
These are yes or no findings as the source states them, for the method shown. For some of these results: Binding seen in cells or lysates may run through a third protein. Some entries that bind do so weakly or less than the wild type. Sequences can lack the tags named with a protein.

Sequences of proteins named here, by UniProt entry; tags and fusion partners are left off.
UniProt Q9H3P2: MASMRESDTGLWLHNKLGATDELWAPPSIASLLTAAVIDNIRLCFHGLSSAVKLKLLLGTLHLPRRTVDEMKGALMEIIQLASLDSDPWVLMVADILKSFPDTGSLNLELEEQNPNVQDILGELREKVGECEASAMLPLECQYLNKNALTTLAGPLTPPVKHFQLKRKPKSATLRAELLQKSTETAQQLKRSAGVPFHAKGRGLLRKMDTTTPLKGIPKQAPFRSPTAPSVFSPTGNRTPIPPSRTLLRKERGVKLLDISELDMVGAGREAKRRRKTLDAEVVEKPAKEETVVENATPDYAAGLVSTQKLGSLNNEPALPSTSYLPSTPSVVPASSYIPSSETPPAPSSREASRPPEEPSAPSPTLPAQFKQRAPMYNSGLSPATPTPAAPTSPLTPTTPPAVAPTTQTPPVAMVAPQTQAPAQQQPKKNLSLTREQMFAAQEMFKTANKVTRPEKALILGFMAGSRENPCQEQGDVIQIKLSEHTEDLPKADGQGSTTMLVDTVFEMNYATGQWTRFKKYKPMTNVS
UniProt P18615: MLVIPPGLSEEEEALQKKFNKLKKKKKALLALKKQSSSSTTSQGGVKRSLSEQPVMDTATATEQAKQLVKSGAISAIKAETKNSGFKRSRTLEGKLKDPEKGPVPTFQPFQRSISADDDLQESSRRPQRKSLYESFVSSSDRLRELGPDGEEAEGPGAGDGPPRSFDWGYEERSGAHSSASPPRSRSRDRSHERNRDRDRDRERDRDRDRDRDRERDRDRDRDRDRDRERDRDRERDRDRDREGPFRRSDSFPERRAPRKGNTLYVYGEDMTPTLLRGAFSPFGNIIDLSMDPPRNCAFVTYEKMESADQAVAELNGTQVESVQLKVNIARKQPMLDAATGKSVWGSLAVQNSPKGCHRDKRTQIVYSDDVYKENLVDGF
UniProt P50750: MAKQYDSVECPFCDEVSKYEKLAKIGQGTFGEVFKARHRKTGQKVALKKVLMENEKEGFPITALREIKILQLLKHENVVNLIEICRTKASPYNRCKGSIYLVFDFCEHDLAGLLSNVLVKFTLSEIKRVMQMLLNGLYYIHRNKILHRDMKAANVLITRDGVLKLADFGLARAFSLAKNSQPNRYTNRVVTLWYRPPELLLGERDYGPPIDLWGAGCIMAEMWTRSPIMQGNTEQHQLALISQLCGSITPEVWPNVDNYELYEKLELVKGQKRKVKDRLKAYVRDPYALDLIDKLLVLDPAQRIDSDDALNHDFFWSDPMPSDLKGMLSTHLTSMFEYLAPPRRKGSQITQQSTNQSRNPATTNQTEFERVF

T1: recombinant his-tagged CTCF (human) (UniProt P49711)
T1 sequence: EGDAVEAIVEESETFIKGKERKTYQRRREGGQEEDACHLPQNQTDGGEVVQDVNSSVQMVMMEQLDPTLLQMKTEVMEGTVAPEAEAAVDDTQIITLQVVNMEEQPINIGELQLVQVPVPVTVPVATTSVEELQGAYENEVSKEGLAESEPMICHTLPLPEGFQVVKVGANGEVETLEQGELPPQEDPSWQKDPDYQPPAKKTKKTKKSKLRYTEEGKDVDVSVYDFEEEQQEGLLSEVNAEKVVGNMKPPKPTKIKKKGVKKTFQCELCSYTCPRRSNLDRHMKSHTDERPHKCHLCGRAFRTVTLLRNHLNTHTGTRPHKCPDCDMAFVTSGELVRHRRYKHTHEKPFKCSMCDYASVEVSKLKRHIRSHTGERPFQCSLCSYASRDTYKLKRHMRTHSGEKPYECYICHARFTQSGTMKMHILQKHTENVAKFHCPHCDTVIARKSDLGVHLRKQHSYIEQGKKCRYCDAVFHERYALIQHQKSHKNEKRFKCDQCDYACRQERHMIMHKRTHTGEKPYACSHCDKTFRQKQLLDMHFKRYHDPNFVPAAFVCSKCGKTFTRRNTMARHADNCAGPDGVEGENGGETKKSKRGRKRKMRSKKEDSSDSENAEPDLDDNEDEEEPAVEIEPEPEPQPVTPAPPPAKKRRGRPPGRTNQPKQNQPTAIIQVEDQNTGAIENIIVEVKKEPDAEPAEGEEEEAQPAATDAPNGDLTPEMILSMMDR

B1: recombinant his-tagged CTCF (protein, UniProt P49711 2-727)
chain: T1 sequence

Experiments:
[1] = target: T1, recombinant his-tagged CTCF (human); assay: pull-down; his-CTCF held on Ni-NTA agarose beads, incubated with HeLa nuclear extract 1 h at 4°C; 8 washes with RIPA buffer with 150 mM NaCl (or 300 mM NaCl, more stringent panel); Western blot; only the target purified
GST-Nelf-A = GST-Nelf-A (UniProt Q9H3P2); assay: pull-down; 500 ng GST-Nelf-A or GST-Nelf-E held on glutathione sepharose 4B, 500 ng his-CTCF added in 50 mM Tris pH7.5, 250 mM NaCl, 2 mM EDTA, 0.1% NP-40, 1 h at 4°C; Western blot with CTCF antibodies; both purified
GST-Nelf-E = GST-Nelf-E (UniProt P18615); assay: as above
[2] = target: FLAG-Nelf-E containing NELF complex (UniProt P18615); assay: pull-down; 500 ng his-CTCF with 500 ng FLAG-NELF or FLAG-DSIF in 50 mM Tris pH7.5, 250 mM NaCl, 2 mM EDTA, 0.1% NP-40, 1 h at 4°C; captured on anti-FLAG M2 affinity gel, eluted with FLAG peptide; Western blot; both purified

Molecule | binding [1] | binding (GST-Nelf-A) | binding (GST-Nelf-E) | binding [2]
p42 isoform of CDK9 (from UniProt P50750 1-372) | binds | – | – | –
B1 | – | binds | binds | binds weakly
